From PubChem BioAssay AID2685 (National Center for Advancing Translational Sciences (NCATS), 2010) come the findings set out here.

The list shows a part of the results. The main result of the screen is listed elsewhere. These columns were measured beside it and carry no call. Compounds called inactive in the main read-out are mostly missing here. Words in brackets tell the shape of the fitted curve; partial curves, single points and poor fits give uncertain potencies.

This experiment in a line: qHTS Assay for Lipid Storage Modulators in Drosophila S3 Cells.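 For cell number change: cells counted by Cell Tracker Red CMTPX staining in the red channel.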 As to conditions: BODIPY lipid droplet fluorescence, 18-24 h; for cell number change: measured here: cell count max response, cells fed with added oleic acid. In a few lines: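 Drosophila S3 cells loaded with oleic acid (400 uM, as added) and compounds at several concentrations; lipid droplets imaged by 488-nm laser-scanning cytometry, 500–530 nm intensity and object ratio to cell channel. Percent activity normalized to 20 uM Triacsin C.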
On the technique in general: In qHTS, concentration-response curves come from the screen itself.

Where [1] appears, read: measured here: lipid fluorescence (Fed channel) AC50, cells fed with added oleic acid.
The mark [2] stands for this setting: measured here: cell number channel AC50, cells fed with added oleic acid.

Broadly, the AC50 is the midpoint of the concentration-response curve, whichever way the signal moves. Read a high AC50 as activity only at high concentration.

With `CN(C)C(=O)c1ccc(Nc2ncnc3sc4c(c23)CCCCC4)cc1`, the cell number change worked out at 11.7%. The concentration at half-maximal activity (AC50) under setting [1] is 29.1 µM [falling, single point].
Turning to `c1ccc2nc(N3CCN(Cc4ccc5c(c4)OCO5)CC3)cnc2c1`, the cell number change was -24.3%. Further, the concentration at half-maximal activity (AC50) under setting [2] is 1.84 µM [falling, full curve, poor fit]. Also, under setting [1], the AC50 was 2.59 µM [falling, partial curve, poor fit].
In the case of `COc1ccc(C(=O)Nc2ccc3nc(N4CCOCC4)sc3c2)cc1OC`, the cell number change came to 0.625%.
With `COc1ccc(Cn2nnnc2C(c2cc3ccc(OC)cc3[nH]c2=O)N2CCC(C)CC2)cc1` (stereo not given), the cell number change stood at 8.49%. Moreover, under setting [2], the AC50 is 5.8 µM [rising, single point].
Consider `Cc1ccc(-n2nc3c(=O)n(C(C)C(=O)NCc4ccco4)nc(C)c3c2C)cc1` (stereo not given), for which the cell number change came out at 7.63%. For the same molecule, the AC50 under setting [1] was 6.51 µM [rising, single point].
Regarding `Cc1ccc(N2CC(C(=O)Nc3ccc(S(=O)(=O)Nc4nccs4)cc3)CC2=O)cc1C` (stereo not given), the cell number change was -11.1%. Also, the AC50 under setting [1] was 0.291 µM [falling, partial curve, poor fit].
For the molecule `COc1cccc(C(C2=C(O)CC(C)(C)CC2=O)C2C(=O)CC(C)(C)CC2=O)c1` (stereo not given), the cell number change was -31.3%. For the same molecule, the AC50 under setting [2] was 2.59 µM [falling, full curve]. Also, the AC50 under setting [1] is 3.26 µM [falling, full curve].
On to `Cc1[nH]c2ccccc2c1C(=O)NS(=O)(=O)Nc1ccc(F)cc1`, for which the AC50 is, setting by setting: under setting [2], 6.51 µM [falling, single point]; under setting [1], 0.731 µM [rising, single point].
For the molecule `NS(=O)(=O)c1ccc(CNC(=O)Cn2nc(C(F)F)cc2C(F)F)cc1`, the cell number change amounted to 5.49%. For the same molecule, under setting [2], the AC50 is 7.31 µM [rising, single point]. For the same molecule, under setting [1], the AC50 is 6.51 µM [rising, partial curve, poor fit].
`CCc1nnc(NC(=O)CSc2nnc(Cc3ccc(OC)cc3)o2)s1`: the cell number change was -12.2%. The AC50 under setting [1] is 0.184 µM [rising, full curve, poor fit].
Consider `CN1CCN(CCCNC(=O)c2ccc(/C=C3\Sc4ccccc4N(Cc4ccc(F)cc4)C3=O)cc2)CC1`, for which the cell number change is -28.7%. Also, the AC50 under setting [1] was 23.1 µM [falling, single point].
With `COc1ccccc1-n1c(SCC(=O)NC2CCS(=O)(=O)C2)nc2ccccc2c1=O` (stereo not given), the cell number change turned out to be 13%. Further, the AC50 under setting [1] is 6.51 µM [falling, single point].
Regarding `O=c1c2ccccc2nnn1CSc1nnc(C2COc3ccccc3O2)n1-c1ccccc1` (stereo not given), the cell number change was -2.38%.
As for `CCCN(CC(=O)Nc1ccccc1C)C(=O)c1ccc(-c2ccccc2)cc1`, the cell number change is -10.8%. Further, the AC50 under setting [1] was 3.66 µM [falling, full curve].
As for `Oc1ccc(-c2csc(Nc3ccccn3)n2)cc1O`, the cell number change was -58.5%. Besides, the AC50 under setting [2] was 20.6 µM [falling, partial curve]. The AC50 under setting [1] was 6.51 µM [falling, full curve, poor fit].
`O=S(=O)(Cc1ccccc1)N1CCN(c2ncccn2)CC1`: the cell number change was determined as 20.5%.
Consider `CCOC(=O)Cn1c2c(c(=N)c3ccccc31)CCC2`, for which the cell number change was -97.7%. Moreover, the AC50 under setting [2] was 29.1 µM [falling, partial curve, poor fit]. Under setting [1], the AC50 is 29.1 µM [rising, single point].
With `Cc1nc(CS(=O)(=O)c2ccc(Cl)cc2)sc1C(=O)O`, the cell number change is 16.8%. For the same molecule, under setting [2], the AC50 is 7.31 µM [rising, partial curve, poor fit].
Consider `O=C(c1ccc(Cl)cc1)N(Cc1ccco1)C1CCS(=O)(=O)C1` (stereo not given), for which the cell number change amounted to 15.3%. For the same molecule, the AC50 under setting [1] is 5.8 µM [falling, full curve].
For the molecule `CCOc1ccc(NS(=O)(=O)N(C)C)cc1`, the cell number change was -14.1%. Further, the half-maximal activity concentration (AC50) under setting [2] is 0.13 µM [falling, full curve, poor fit]. Further, the concentration at half-maximal activity (AC50) under setting [1] is 3.26 µM [falling, partial curve, poor fit].
`O=C(O)C1C2CCC(O2)C1C(=O)NCCC1=CCCCC1` (stereo not given): the cell number change was -157%.
For the molecule `N/C(=N\OC(=O)CCCc1ccccc1)c1ccc(Br)cc1`, the cell number change amounted to 12.3%. In addition, the AC50 under setting [1] was 0.326 µM [rising, full curve, poor fit].
Turning to `Cc1ccc(NNC(=O)C(O)(c2cccc(C(F)(F)F)c2)c2cccc(C(F)(F)F)c2)cc1`, the cell number change is -78.6%. Besides, the AC50 under setting [2] is 16.4 µM [falling, partial curve]. For the same molecule, under setting [1], the AC50 was 18.4 µM [falling, partial curve].
Take `Cc1cc(-c2ccc(C(C)C)c(S(=O)(=O)N3CC(=O)Nc4ccccc43)c2)on1`: the cell number change is -19.9%. Under setting [1], the concentration at half-maximal activity (AC50) was 6.51 µM [falling, single point].
In the case of `CSCC[C@H](NC(=O)Nc1ccc(S(N)(=O)=O)cc1)C(=O)O`, the cell number change is -29.8%. For the same molecule, the AC50 under setting [2] was 0.0291 µM [falling, full curve, poor fit]. For the same molecule, the concentration at half-maximal activity (AC50) under setting [1] is 3.26 µM [falling, full curve].
On to `CCn1c2ccccc2c2cc(NC(=O)c3ccc(Br)o3)ccc21`, for which the cell number change is 64.3%.
For `CCOC(=O)C1C(c2ccccc2O)NC(=O)NC1(O)C(F)(F)F` (stereo not given), the cell number change was -18.3%. The AC50 under setting [1] is 29.1 µM [falling, single point].
On to `COC(=O)c1ccc(NC(=O)c2cccc(N3C(=O)CCC3=O)c2)cc1`, for which the cell number change was 8%.
On to `CC1C(=O)N2CCCc3cc(S(=O)(=O)NCc4ccc(F)cc4)cc1c32` (stereo not given), for which the concentration at half-maximal activity (AC50) under setting [1] was 1.84 µM [rising, partial curve].
Take `O=C(COc1ccc(Cl)cc1Cl)NCCCNC(=O)c1cnccn1`: the cell number change came out at 11.8%.
Regarding `O=C(COC(=O)CCc1ccc(S(=O)(=O)N2CCOCC2)cc1)NC(=O)NC1CCCCC1`, the cell number change was -5.74%. In addition, the AC50 under setting [1] was 2.91 µM [falling, single point].
`Cc1onc(-c2ccccc2Cl)c1C(=O)NC(=S)NCCc1ccccc1`: the cell number change was -12.6%. Besides, the concentration at half-maximal activity (AC50) under setting [2] was 0.116 µM [falling, full curve, poor fit]. The AC50 under setting [1] was 29.1 µM [rising, single point].
For the molecule `CCC(C)NC(=O)C1=CCN(S(=O)(=O)c2ccc(C)cc2)CC1` (stereo not given), the cell number change is -13.4%.
Take `Cc1onc(-c2ccccc2Cl)c1C(=O)Nc1ccccc1O`: the cell number change is 7.14%. For the same molecule, the concentration at half-maximal activity (AC50) under setting [1] was 6.51 µM [falling, single point].
`O=C(COC(=O)/C=C/c1ccc(S(=O)(=O)N2CCc3ccccc32)cc1)NC1CCS(=O)(=O)C1` (stereo not given): the cell number change came out at 38.2%.
In the case of `CC(NC(=O)CNC(=O)c1sc2ccccc2c1Cl)c1cccnc1` (stereo not given), the cell number change is -19%. The half-maximal activity concentration (AC50) under setting [1] was 5.8 µM [falling, full curve].
Take `CCC(C)n1c(S(=O)(=O)O)nc2ccccc21` (stereo not given): the cell number change is -41.4%. The AC50 under setting [2] is 0.651 µM [falling, partial curve, poor fit]. For the same molecule, the AC50 under setting [1] is 1.46 µM [falling, full curve].
As for `Cc1noc(C)c1CSCC(=O)OCC(=O)Nc1sccc1C#N`, the AC50 was 0.103 µM [falling, full curve, poor fit] under setting [2] and 1.84 µM [falling, partial curve] under setting [1].
Turning to `CCOc1cc(/C=N/NC(=O)c2ccncc2)ccc1OC(=O)c1ccc([N+](=O)[O-])cc1`, the cell number change is -40.2%. For the same molecule, the AC50 under setting [2] is 25.9 µM [falling, partial curve, poor fit].
With `CC(=O)Nc1ccc2c(COC(=O)CC3Sc4ccccc4NC3=O)cc(=O)oc2c1` (stereo not given), the cell number change worked out at 105%. Moreover, the AC50 under setting [2] is 18.4 µM [rising, single point].
As for `Oc1ccc(/C=N/n2cc(-c3ccccc3)[nH]c2=S)cc1`, the cell number change came to 34.9%. Further, the AC50 under setting [2] is 29.1 µM [rising, single point]. In addition, the AC50 under setting [1] was 29.1 µM [rising, single point].
Consider `COc1ccc(C(=O)NNC(=O)C2CCCN(C3CC(=O)N(c4ccccc4)C3=O)C2)cc1` (stereo not given), for which the cell number change worked out at 32.1%. Also, the AC50 under setting [2] was 23.1 µM [rising, single point].
Regarding `Cn1c(=O)c2c(nc(Sc3nc4ccccc4n3CC(=O)N3CCCCC3)n2C)n(C)c1=O`, the AC50 under setting [2] is 0.13 µM [rising, single point] and the AC50 under setting [1] is 0.58 µM [rising, partial curve].
Take `CCCCc1c(C)[nH]c(C(=O)OCC)c1C`: the cell number change was -48.8%.
For the molecule `C#CCOCCOCCOCCNc1nc(N2CCN(C(=O)C([C@@H](C)CC)n3cc(C(N)CO)nn3)CC2)nc(N2CCN(C(=O)[C@H](CCC(=O)O)n3cc(C(N)Cc4ccc(O)cc4)nn3)CC2)n1` (stereo not given in full), the cell number change was -36.6%. Moreover, the AC50 under setting [2] was 2.31 µM [falling, full curve]. Moreover, the concentration at half-maximal activity (AC50) under setting [1] is 29.1 µM [falling, single point].
In the case of `COc1ccccc1CNC(=O)CSCc1cnn(-c2ccccc2)c1-n1cccc1`, the cell number change was 75.9%. For the same molecule, under setting [2], the AC50 is 2.59 µM [rising, full curve]. Besides, the AC50 under setting [1] is 5.17 µM [rising, full curve].
Take `C/C(=N\NC(=O)c1ccncc1)c1cc2ccccc2oc1=O`: the cell number change is -21.7%.
Take `CC1C(=O)CC(c2ccccc2)NC1c1ccccc1` (stereo not given): under setting [2], the AC50 is 5.8 µM [rising, single point].
Regarding `CCCn1c(C)nc2c(c1=O)c1nc3ccccc3nc1n2CCC1=CCCCC1`, the cell number change is -3.75%. Moreover, under setting [1], the AC50 is 6.51 µM [rising, partial curve].
Regarding `CC(C)c1ccc(OCC(=O)Nc2cccc3c2CCCC3)cc1`, the cell number change is -31.6%. Also, the AC50 under setting [2] is 5.17 µM [falling, full curve, poor fit]. In addition, the AC50 under setting [1] was 8.2 µM [falling, partial curve].
With `O=C(N/N=C/c1ccc(F)cc1)c1sccc1OCc1ccc(F)cc1`, the cell number change was -8.25%. Also, under setting [1], the AC50 was 0.651 µM [falling, full curve, poor fit].
In the case of `O=C(NCC(=O)N1CCN(c2ncccn2)CC1)c1cccs1`, the cell number change was -60.6%. Moreover, the AC50 under setting [2] is 4.61 µM [falling, partial curve]. The AC50 under setting [1] was 6.51 µM [falling, single point].
Consider `COc1ccc(-c2cc(C(=O)NC(C)c3ccccn3)c3ccccc3n2)cc1OC` (stereo not given), for which the cell number change was found to be 6.43%. Further, under setting [1], the AC50 is 2.91 µM [rising, partial curve].
Take `O=C(CNc1ccc2c(c1)OCO2)N/N=C\c1ccccc1Cl`: under setting [1], the half-maximal activity concentration (AC50) was 2.59 µM [rising, full curve].
As to `O=C1c2ccc3c4c(ccc(c24)C(=O)N1c1cccc(O)c1)CC3`, the cell number change is -4.21%.
Consider `CN(C)C(=O)CN1C(=O)NC2(CCc3ccccc32)C1=O` (stereo not given), for which the cell number change was -4.88%. Besides, the AC50 under setting [1] is 3.66 µM [rising, single point].
Take `Cc1ccc(C)c(NC(=S)N2CCC(N(C)CC3CCCO3)CC2)c1` (stereo not given): the cell number change was -16.7%. The AC50 under setting [2] is 0.517 µM [falling, full curve, poor fit]. Moreover, the AC50 under setting [1] was 1.16 µM [falling, full curve].
